Genes significantly upregulated and genes significantly downregulated data for one molecule are collected here from patent US20240165108A1, “NOVEL USE” (GlaxoSmithKline Intellectual Property Development Limited, priority 2022, published 2024).

The subject of the data set is human hair follicles. The data set is described as follows: RNA sequencing of ex vivo cultured hair follicles. The class given is cell-based. The note with it: healthy donors, 24 hours, 3 μM succinate. The procedure:
RNA extraction, sequencing and analysis were performed as follows; RNA from n=2-3 hair follicles per group was extracted using […]® PicoPure® RNA Isolation Kit (ThermoFisher) including a Dnase digestions step using the Rnase-Free Dnase Set from Qiagen and stored at −80 degrees Celsius until analysed. RNA concentration, purity and integrity were assessed before sequencing. Sequencing was performed on a NovaSeq 6000 using 2×100 bp read length with an output of approximately 30 M clusters (6 Gb per sample). Demultiplexing of the sequencing reads was performed with Illumina bcl2fastq (2.20).
Briefly, DESeq2 first creates a pseudo-reference sample (row-wise geometric mean) and calculates the ratio of each sample to this reference. Then, the normalization factor for each sample (size factor) is calculated using the median value of all ratios for a given sample. Normalized count values are created by dividing each raw count value in a given sample by that sample's normalization factor. Finally, DESeq2 calculates p values and adjusted p values for genes of two groups by allowing the shrinkage of the log 2 fold changes when the information for a gene is low (low counts or high dispersion values). For manual calculation of fold change (FC) between two groups, the ratio of the normalized read counts was used. […]

For the setting “p <0.05, FC greater than 2”, `O=C([O-])CCC(=O)[O-].[Na+].[Na+]` [Succinate, Sodium succinate] gave a genes significantly upregulated of 28. This molecule also showed a genes significantly downregulated (p <0.05, FC less than 0.5) of 44.
